Source: patent US11332440B2, “4-oxo-alkylated tetramic acid compound, and preparation method thereof” (priority 2017, dated 2022)
For at least one compound, name, drawing or mass did not settle the structure.

Test system: Drosophilae containing and expressing human Abeta42 gene
Assay: Pavlov's olfactory-related instantaneous memory test in Drosophila
Type: in vivo
Settings: increasing dosage, compared with memantine hydrochloride; FIG. 3
Source text: Drosophila has a classical learning and memory paradigm, known as Pavlov's olfactory-related instantaneous memory. During the training program, a group of about 100 drosophilae were exposed sequentially to two odors, i.e., 3-octanol and 4-methylcyclohexanol, each odor for 60 seconds, and to fresh air for 45 seconds therebetween. During exposure to the first odor, the drosophilae were electrocuted on their feet (1.5-second pulses at 3.5-second intervals, 60V), while no electrocution was exerted during exposure to the second odor. In order to detect “instantaneous memory” (also known as “learning”), drosophilae were transferred to the selection area in the T maze immediately after training and forced to choose between the two odors. The drosophilae in each T-maze arm were then captured, anesthetized, and counted. The behavior index was calculated from the distribution of drosophilae in the T maze. […] In each experiment, the age of the control group was matched with that of the experimental group.
Pharmacodynamic evaluation of the candidate compounds: Drosophilae containing and expressing human Abeta42 gene were selected as a diseased control, and drosophilae containing but not expressing human Abeta42 gene were selected as a healthy control. The day after emergence of the drosophilae, male drosophilae were selected and fed. […]

O=C1C=C(OCc2ccc(F)cc2)[C@H](Cc2ccccc2)N1 [Compound 50561]
dose-effect relationship to improve memory of drosophilae with Alzheimer's disease: eventually reaches or exceeds the level of the activity of the positive compound memantine hydrochloride
